According to the supplement of paper PMC6411743:
± gives the standard deviation of the averaged measurements. The list shows a part of the results.

Protein sequences, listed by entry. Tags and fused reporters are not part of them. Lines headed by an entry give the natural chain unless they say otherwise; changes in a name come on top.
UniProt Q9NTI5: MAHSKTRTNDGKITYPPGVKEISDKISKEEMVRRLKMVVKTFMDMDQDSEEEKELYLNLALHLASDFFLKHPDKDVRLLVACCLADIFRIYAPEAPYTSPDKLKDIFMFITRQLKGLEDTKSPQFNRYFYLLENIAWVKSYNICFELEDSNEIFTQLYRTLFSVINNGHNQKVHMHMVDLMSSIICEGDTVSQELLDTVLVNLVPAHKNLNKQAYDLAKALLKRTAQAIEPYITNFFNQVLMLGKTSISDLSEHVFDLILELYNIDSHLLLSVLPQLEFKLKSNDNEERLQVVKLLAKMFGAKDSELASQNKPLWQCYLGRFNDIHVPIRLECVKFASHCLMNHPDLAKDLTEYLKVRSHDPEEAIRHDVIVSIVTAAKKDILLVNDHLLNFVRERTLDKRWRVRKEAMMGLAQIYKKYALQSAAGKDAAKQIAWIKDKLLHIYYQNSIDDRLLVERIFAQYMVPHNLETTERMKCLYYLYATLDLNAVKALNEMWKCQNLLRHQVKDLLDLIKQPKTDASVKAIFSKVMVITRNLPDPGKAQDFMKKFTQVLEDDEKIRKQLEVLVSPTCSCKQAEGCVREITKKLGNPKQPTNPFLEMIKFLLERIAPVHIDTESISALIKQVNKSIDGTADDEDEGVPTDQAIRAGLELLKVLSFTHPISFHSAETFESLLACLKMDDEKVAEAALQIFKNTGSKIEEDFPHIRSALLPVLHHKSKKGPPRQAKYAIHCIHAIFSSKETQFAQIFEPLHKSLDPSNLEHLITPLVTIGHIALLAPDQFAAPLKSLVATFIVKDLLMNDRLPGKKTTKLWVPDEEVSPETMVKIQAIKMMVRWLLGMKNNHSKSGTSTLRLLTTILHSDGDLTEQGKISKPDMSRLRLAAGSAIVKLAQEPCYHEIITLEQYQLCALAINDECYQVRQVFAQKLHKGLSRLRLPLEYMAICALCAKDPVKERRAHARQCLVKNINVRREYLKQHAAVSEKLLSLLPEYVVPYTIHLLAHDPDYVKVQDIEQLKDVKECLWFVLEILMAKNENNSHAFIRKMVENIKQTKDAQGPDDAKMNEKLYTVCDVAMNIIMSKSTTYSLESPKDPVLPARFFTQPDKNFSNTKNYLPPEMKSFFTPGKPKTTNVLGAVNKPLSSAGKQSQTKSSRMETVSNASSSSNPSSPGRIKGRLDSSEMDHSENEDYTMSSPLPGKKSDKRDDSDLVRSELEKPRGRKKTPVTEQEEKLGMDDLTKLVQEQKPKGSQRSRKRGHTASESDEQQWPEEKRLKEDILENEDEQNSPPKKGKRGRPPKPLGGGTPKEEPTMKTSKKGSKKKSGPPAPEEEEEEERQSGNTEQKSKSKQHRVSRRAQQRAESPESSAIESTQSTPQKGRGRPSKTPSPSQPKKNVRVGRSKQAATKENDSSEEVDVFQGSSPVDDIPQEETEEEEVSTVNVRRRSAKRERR
UniProt Q9UL63, whole entry: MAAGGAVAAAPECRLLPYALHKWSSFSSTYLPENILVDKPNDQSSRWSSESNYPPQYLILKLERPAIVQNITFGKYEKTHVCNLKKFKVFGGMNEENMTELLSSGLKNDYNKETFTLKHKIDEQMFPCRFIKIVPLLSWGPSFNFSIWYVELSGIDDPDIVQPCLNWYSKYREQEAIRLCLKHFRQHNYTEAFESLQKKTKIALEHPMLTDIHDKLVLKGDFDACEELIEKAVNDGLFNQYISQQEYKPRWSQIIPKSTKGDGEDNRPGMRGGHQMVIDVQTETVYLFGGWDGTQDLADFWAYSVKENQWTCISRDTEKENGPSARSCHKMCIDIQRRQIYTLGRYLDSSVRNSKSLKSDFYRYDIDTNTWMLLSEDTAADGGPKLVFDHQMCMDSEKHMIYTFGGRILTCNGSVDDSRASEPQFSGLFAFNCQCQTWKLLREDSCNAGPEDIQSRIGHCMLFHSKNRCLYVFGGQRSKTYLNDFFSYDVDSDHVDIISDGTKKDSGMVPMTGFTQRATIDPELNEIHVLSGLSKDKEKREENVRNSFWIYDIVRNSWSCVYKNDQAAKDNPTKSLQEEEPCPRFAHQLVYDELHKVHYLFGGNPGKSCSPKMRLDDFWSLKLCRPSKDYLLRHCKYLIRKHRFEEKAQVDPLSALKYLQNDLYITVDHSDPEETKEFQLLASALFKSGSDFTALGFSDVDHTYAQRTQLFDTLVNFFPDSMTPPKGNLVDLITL
UniProt A6NFI3: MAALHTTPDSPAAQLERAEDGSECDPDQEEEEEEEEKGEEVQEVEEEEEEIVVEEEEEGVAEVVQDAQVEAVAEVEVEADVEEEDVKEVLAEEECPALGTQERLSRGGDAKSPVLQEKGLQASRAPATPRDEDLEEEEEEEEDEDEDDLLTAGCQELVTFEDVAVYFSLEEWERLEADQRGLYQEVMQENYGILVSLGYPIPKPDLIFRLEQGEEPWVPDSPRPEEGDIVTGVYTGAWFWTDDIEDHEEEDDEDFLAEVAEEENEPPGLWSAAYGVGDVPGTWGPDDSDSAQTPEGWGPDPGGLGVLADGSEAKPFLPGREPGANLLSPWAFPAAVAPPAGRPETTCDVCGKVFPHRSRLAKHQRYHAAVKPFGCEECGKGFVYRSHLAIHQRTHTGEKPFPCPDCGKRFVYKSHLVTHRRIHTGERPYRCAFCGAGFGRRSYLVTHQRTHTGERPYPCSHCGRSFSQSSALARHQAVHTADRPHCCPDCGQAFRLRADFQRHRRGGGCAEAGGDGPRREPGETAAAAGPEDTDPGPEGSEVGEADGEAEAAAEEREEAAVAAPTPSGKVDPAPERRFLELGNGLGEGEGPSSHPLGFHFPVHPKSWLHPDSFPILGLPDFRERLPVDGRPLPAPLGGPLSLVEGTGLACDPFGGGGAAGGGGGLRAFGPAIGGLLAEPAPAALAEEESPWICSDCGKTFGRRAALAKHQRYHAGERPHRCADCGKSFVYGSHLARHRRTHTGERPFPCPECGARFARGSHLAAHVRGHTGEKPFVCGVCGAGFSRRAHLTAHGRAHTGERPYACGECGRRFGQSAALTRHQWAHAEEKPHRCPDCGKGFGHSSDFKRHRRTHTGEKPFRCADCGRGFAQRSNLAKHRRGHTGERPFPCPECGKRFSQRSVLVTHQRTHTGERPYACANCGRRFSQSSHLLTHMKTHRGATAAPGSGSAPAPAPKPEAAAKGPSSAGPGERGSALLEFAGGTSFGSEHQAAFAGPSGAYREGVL
UniProt A6NKF1: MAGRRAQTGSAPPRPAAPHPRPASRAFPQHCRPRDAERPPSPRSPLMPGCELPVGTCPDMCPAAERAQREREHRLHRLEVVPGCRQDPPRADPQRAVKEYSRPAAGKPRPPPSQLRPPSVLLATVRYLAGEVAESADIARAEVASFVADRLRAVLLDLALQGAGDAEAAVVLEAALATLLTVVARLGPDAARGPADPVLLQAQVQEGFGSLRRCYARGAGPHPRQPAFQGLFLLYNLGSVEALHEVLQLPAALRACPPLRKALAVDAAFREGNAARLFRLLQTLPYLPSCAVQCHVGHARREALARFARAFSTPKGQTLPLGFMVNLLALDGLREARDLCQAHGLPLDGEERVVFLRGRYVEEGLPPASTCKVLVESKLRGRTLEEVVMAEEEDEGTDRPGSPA
UniProt O60925, whole entry: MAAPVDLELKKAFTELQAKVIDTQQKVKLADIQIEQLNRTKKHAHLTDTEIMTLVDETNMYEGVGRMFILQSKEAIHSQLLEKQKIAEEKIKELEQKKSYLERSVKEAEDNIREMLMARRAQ
UniProt O75347: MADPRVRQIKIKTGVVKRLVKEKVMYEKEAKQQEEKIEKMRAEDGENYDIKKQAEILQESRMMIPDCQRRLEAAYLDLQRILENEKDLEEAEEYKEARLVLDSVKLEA
UniProt Q9GZR1: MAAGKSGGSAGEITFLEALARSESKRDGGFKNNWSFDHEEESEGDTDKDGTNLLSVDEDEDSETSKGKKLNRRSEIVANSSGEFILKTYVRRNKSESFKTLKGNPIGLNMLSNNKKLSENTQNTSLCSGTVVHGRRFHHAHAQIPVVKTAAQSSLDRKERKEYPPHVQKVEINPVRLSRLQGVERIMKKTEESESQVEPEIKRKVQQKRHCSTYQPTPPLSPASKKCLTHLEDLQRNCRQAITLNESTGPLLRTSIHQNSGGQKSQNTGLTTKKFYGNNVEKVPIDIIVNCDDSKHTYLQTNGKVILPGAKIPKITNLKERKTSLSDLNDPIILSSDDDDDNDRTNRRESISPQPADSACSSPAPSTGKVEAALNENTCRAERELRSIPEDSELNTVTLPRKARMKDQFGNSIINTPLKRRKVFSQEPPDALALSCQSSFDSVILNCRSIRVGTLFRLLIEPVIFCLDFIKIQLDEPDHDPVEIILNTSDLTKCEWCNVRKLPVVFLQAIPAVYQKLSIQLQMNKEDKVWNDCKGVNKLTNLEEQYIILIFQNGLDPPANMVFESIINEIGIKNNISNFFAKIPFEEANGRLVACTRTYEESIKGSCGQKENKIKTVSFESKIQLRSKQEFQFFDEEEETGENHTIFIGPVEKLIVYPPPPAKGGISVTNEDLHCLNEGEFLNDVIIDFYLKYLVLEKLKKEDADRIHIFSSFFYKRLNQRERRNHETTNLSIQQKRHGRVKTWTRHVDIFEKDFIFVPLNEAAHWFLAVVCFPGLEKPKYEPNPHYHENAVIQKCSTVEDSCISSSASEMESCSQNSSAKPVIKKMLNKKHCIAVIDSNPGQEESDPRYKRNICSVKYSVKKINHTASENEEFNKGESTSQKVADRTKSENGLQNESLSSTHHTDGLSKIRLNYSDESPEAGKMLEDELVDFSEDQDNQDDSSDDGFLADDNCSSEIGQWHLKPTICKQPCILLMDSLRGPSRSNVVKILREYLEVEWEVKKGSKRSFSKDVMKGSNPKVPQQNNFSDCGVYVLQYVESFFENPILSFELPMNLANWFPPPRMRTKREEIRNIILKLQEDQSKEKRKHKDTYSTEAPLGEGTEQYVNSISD
UniProt Q96RU3: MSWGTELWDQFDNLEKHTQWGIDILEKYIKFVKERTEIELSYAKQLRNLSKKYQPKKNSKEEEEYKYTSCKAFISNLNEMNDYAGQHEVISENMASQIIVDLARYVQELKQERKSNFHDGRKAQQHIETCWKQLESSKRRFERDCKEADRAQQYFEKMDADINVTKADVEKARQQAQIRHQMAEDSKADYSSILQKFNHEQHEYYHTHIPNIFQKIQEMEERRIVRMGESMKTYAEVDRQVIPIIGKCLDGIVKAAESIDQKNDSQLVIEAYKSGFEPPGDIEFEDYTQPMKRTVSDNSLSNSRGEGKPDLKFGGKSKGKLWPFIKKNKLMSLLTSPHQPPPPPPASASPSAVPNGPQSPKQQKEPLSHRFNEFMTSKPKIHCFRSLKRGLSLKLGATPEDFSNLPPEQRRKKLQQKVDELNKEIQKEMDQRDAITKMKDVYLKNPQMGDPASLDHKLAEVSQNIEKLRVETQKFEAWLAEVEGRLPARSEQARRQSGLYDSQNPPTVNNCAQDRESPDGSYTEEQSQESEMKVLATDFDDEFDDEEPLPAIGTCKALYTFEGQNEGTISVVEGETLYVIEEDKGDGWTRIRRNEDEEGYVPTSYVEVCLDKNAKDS
UniProt Q53HC9: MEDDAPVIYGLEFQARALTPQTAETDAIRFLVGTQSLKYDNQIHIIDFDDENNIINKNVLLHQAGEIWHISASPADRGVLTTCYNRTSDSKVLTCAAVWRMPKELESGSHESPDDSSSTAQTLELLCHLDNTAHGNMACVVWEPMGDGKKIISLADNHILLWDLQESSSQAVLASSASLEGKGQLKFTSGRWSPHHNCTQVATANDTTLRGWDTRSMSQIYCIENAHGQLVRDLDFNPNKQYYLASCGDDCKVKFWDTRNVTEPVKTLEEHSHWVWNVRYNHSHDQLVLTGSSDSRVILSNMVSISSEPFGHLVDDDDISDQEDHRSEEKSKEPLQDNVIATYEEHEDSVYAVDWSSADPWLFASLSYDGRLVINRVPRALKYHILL
UniProt A6NDG6: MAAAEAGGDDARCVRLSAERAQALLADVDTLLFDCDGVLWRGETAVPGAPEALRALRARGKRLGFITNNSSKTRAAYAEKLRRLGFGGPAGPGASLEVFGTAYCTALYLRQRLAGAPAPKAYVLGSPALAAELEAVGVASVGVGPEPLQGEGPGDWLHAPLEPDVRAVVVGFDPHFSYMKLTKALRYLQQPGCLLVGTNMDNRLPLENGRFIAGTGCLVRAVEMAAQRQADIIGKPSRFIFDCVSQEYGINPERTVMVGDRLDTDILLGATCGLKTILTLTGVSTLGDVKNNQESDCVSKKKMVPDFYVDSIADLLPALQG
UniProt P63208, whole entry: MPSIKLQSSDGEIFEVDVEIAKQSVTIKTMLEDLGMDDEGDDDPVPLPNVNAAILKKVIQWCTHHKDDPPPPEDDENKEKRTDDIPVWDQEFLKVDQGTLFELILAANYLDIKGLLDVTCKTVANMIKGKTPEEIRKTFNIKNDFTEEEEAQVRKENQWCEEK

Compound: Nc1nc2c(ncn2[C@@H]2O[C@H](COP(=O)(O)OP(=O)(O)OP(=O)(O)O)[C@@H](O)[C@H]2O)c(=O)[nH]1 [guanosine triphosphate]
Test: NP40-soluble protein abundance relative to vehicle (solubility fold change) (ratio); higher = more soluble protein in presence of GTP
How it was run: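 Data come from three independent experiments in which Dounce-homogenised Jurkat crude lysate was treated at eight concentrations from 0.1 to 10 mM. Treatment ran 10 min at room temperature and then 3 min at 37 °C, after which 0.8% NP40 and benzonase were added for 60 min at 4 °C before ultracentrifugation. The supernatant underwent TMT labelling and LC-MS/MS, and vsn-normalised intensities were expressed as fold change against the detergent-processed vehicle in each replicate.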

Target	NP40-soluble protein abundance (concentration: 0.1mM)	NP40-soluble protein abundance (concentration: 0.5mM)	NP40-soluble protein abundance (concentration: 1mM)	NP40-soluble protein abundance (concentration: 2mM)	NP40-soluble protein abundance (concentration: 4mM)	NP40-soluble protein abundance (concentration: 6mM)	NP40-soluble protein abundance (concentration: 8mM)	NP40-soluble protein abundance (concentration: 10mM)
C9JDQ1 and related entries (UniProt Q13724)	1.05 ± 0.021	1.04 ± 0.061	0.961 ± 0.018	0.995 ± 0.083	0.989 ± 0.038	0.978 ± 0.057	0.936 ± 0.024	0.9 ± 0.097
E5RGZ2 and related entries (UniProt Q6NT76)	0.92 ± 0.04	0.877 ± 0.12	0.927 ± 0.052	0.903 ± 0.056	0.89 ± 0.073	0.963 ± 0.097	0.89 ± 0.033	0.918 ± 0.082
C9JWC4 and related entries (UniProt Q8NCD3)	1.07 ± 0.053	1.12 ± 0.041	1.15 ± 0.069	1.18 ± 0.025	1.19 ± 0.15	1.18 ± 0.067	1.2 ± 0.055	1.13 ± 0.081
A9IYQ1 and related entries (UniProt Q9NTI5)	1.01 ± 0.015	1.03 ± 0.024	1.01 ± 0.015	0.995 ± 0.036	1.01 ± 0.035	1.01 ± 0.052	1.02 ± 0.08	0.992 ± 0.041
B8ZZA8 and related entries (UniProt O94925)	1.03 ± 0.025	1.02 ± 0.02	0.942 ± 0.021	0.953 ± 0.027	0.946 ± 0.028	0.917 ± 0.024	0.891 ± 0.039	0.896 ± 0.046
A6NG10 and related entries (UniProt Q969T9)	0.94 ± 0.12	0.936 ± 0.056	0.856 ± 0.082	0.881 ± 0.051	0.866 ± 0.07	0.843 ± 0.057	0.823 ± 0.09	0.848 ± 0.081
B8ZZC8 and related entries (UniProt Q9NRN9)	1.09 ± 0.1	1.06 ± 0.12	0.931 ± 0.013	0.975 ± 0.042	0.944 ± 0.052	0.947 ± 0.032	0.87 ± 0.064	0.865 ± 0.14
C9K025 and related entries (UniProt P18077)	1.07 ± 0.2	1.15 ± 0.29	1.05 ± 0.31	1.06 ± 0.4	0.894 ± 0.38	0.846 ± 0.33	0.503 ± 0.14	0.824 ± 0.32
C9J7E8 and related entries (UniProt Q9UL63)	0.987 ± 0.071	1.1 ± 0.084	1.04 ± 0.093	1.09 ± 0.14	1.12 ± 0.17	1.07 ± 0.19	1.15 ± 0.14	1.09 ± 0.13
B9ZVT1 and related entries (UniProt Q8IXT5)	1.02 ± 0.081	1.13 ± 0.19	1.21 ± 0.078	1.28 ± 0.25	1.29 ± 0.29	1.3 ± 0.32	1.45 ± 0.47	1.48 ± 0.39
ZNF316 (UniProt A6NFI3)	1.05 ± 0.065	1.04 ± 0.12	1.02 ± 0.023	0.961 ± 0.034	0.939 ± 0.073	0.96 ± 0.12	1.07 ± 0.012	1.02 ± 0.042
UniProt A6NKF1 and related entries	0.951 ± 0.018	0.878 ± 0.016	0.832 ± 0.058	0.841 ± 0.047	0.881 ± 0.078	0.882 ± 0.053	0.863 ± 0.046	0.924 ± 0.043
C9JKQ7 and related entries (UniProt P22102)	0.96 ± 0.015	0.985 ± 0.03	0.9188 ± 0.0076	0.909 ± 0.023	0.895 ± 0.026	0.894 ± 0.017	0.863 ± 0.039	0.863 ± 0.022
E5RGS4 and related entries (UniProt O60925)	0.995 ± 0.059	0.957 ± 0.11	1.01 ± 0.11	0.893 ± 0.1	0.898 ± 0.12	0.927 ± 0.13	0.92 ± 0.1	0.904 ± 0.086
D3DSM0 and related entries (UniProt P05107)	0.983 ± 0.018	0.961 ± 0.018	0.977 ± 0.034	0.96 ± 0.065	0.95 ± 0.065	0.956 ± 0.05	1 ± 0.024	0.989 ± 0.028
B4E2Q0 and related entries (UniProt P98194)	1.02 ± 0.029	1.01 ± 0.061	0.953 ± 0.07	0.957 ± 0.015	0.985 ± 0.04	0.932 ± 0.046	0.9354 ± 0.0018	0.935 ± 0.085
B4DDH2 and related entries (UniProt Q9BYT3)	1.03 ± 0.029	1.04 ± 0.098	0.953 ± 0.051	0.953 ± 0.052	0.996 ± 0.048	0.959 ± 0.023	0.974 ± 0.087	0.974 ± 0.039
E5RIW3 and related entries (UniProt O75347)	0.955 ± 0.1	0.984 ± 0.12	0.956 ± 0.15	0.852 ± 0.15	0.835 ± 0.15	0.871 ± 0.19	0.873 ± 0.11	0.868 ± 0.11
D6RG09 and related entries (UniProt Q9GZR1)	1.061 ± 0.0062	1.04 ± 0.048	1.15 ± 0.057	1.02 ± 0.021	1.06 ± 0.062	1.11 ± 0.12	1.05 ± 0.075	1.09 ± 0.055

Two entries picked at random from the list so far, as already listed:
Target	NP40-soluble protein abundance (concentration: 0.1mM)	NP40-soluble protein abundance (concentration: 0.5mM)	NP40-soluble protein abundance (concentration: 1mM)	NP40-soluble protein abundance (concentration: 2mM)	NP40-soluble protein abundance (concentration: 4mM)	NP40-soluble protein abundance (concentration: 6mM)	NP40-soluble protein abundance (concentration: 8mM)	NP40-soluble protein abundance (concentration: 10mM)
C9J7E8 and related entries (UniProt Q9UL63)	0.987 ± 0.071	1.1 ± 0.084	1.04 ± 0.093	1.09 ± 0.14	1.12 ± 0.17	1.07 ± 0.19	1.15 ± 0.14	1.09 ± 0.13
C9K025 and related entries (UniProt P18077)	1.07 ± 0.2	1.15 ± 0.29	1.05 ± 0.31	1.06 ± 0.4	0.894 ± 0.38	0.846 ± 0.33	0.503 ± 0.14	0.824 ± 0.32

Further entries.

Target	NP40-soluble protein abundance (concentration: 0.1mM)	NP40-soluble protein abundance (concentration: 0.5mM)	NP40-soluble protein abundance (concentration: 1mM)	NP40-soluble protein abundance (concentration: 2mM)	NP40-soluble protein abundance (concentration: 4mM)	NP40-soluble protein abundance (concentration: 6mM)	NP40-soluble protein abundance (concentration: 8mM)	NP40-soluble protein abundance (concentration: 10mM)
B4DIG0 and related entries (UniProt P30305)	1.04 ± 0.13	1 ± 0.014	0.98 ± 0.1	0.994 ± 0.06	1 ± 0.17	0.961 ± 0.11	1.02 ± 0.011	0.962 ± 0.035
C9J6P4 and related entries (UniProt Q7Z2W4)	1 ± 0.014	1.06 ± 0.022	1.03 ± 0.051	1.04 ± 0.021	1.05 ± 0.015	1.05 ± 0.012	1.07 ± 0.043	1.07 ± 0.032
B7ZL14 and related entries (UniProt Q96RU3)	0.939 ± 0.039	0.96 ± 0.06	0.958 ± 0.062	0.929 ± 0.09	0.903 ± 0.074	0.929 ± 0.073	0.926 ± 0.04	0.924 ± 0.081
B4DV51 and related entries (UniProt P62826)	0.9924 ± 0.002	1 ± 0.03	0.934 ± 0.025	0.894 ± 0.05	0.886 ± 0.035	0.885 ± 0.06	0.879 ± 0.051	0.839 ± 0.081
D6R9C6 and related entries (UniProt P27707)	0.995 ± 0.029	0.977 ± 0.014	0.953 ± 0.037	0.88 ± 0.02	0.875 ± 0.043	0.885 ± 0.041	0.883 ± 0.078	0.828 ± 0.076
D6RAN4 and related entries (UniProt P32969)	0.965 ± 0.085	1.01 ± 0.11	1.05 ± 0.25	0.993 ± 0.3	1.02 ± 0.38	0.898 ± 0.28	0.699 ± 0.2	1.03 ± 0.32
C9JF71 and related entries (UniProt Q8TBF5)	1.02 ± 0.13	0.945 ± 0.097	0.969 ± 0.096	1 ± 0.16	0.934 ± 0.082	1.04 ± 0.17	1.03 ± 0.24	1.02 ± 0.17
B1AMS2 and related entries (UniProt Q14141)	1.03 ± 0.053	0.998 ± 0.011	0.968 ± 0.062	0.9155 ± 0.0055	0.941 ± 0.054	0.921 ± 0.016	0.941 ± 0.1	0.857 ± 0.013
E5RJF5 and related entries (UniProt P08133)	0.944 ± 0.012	0.962 ± 0.024	0.906 ± 0.034	0.87 ± 0.025	0.85 ± 0.027	0.864 ± 0.03	0.829 ± 0.051	0.821 ± 0.055
B5MCX3 and related entries (UniProt Q15019)	1.03 ± 0.034	1 ± 0.036	0.98 ± 0.025	0.935 ± 0.035	0.96 ± 0.028	0.925 ± 0.024	0.932 ± 0.03	0.8839 ± 0.0077
D6RB01 and related entries (UniProt Q9Y6X4)	0.939 ± 0.15	0.949 ± 0.16	0.989 ± 0.14	0.906 ± 0.16	0.913 ± 0.12	0.918 ± 0.12	0.939 ± 0.15	0.959 ± 0.14
A8MUM1 and related entries (UniProt Q53HC9)	1.09 ± 0.13	1.07 ± 0.071	1.02 ± 0.15	0.979 ± 0.087	1.03 ± 0.15	0.985 ± 0.084	0.97 ± 0.13	0.922 ± 0.11
D4Q8H0 and related entries (UniProt Q9NYL2+D4Q8H0)	1.07 ± 0.079	1.03 ± 0.12	0.947 ± 0.051	0.965 ± 0.051	0.987 ± 0.073	1.05 ± 0.024	0.93 ± 0.14	0.981 ± 0.081
A6PW57 and related entries (UniProt Q99755)	1.06 ± 0.053	1.07 ± 0.036	1.11 ± 0.03	1.16 ± 0.058	1.2 ± 0.063	1.2 ± 0.066	1.27 ± 0.083	1.19 ± 0.046
PGP (UniProt A6NDG6)	0.992 ± 0.03	0.966 ± 0.018	0.922 ± 0.065	0.893 ± 0.036	0.9 ± 0.049	0.882 ± 0.04	0.849 ± 0.095	0.852 ± 0.06
C9J406 and related entries (UniProt Q16891)	0.9 ± 0.061	0.976 ± 0.064	1 ± 0.049	1.02 ± 0.049	1.04 ± 0.073	1.08 ± 0.084	1.09 ± 0.12	1.08 ± 0.14
C9JWG0 and related entries (UniProt Q16851)	1.04 ± 0.03	1.04 ± 0.052	1 ± 0.046	1.01 ± 0.071	1.01 ± 0.042	1.01 ± 0.067	0.998 ± 0.057	0.983 ± 0.065
E5RJR5 and related entries (UniProt P63208)	0.927 ± 0.096	0.91 ± 0.052	1.08 ± 0.16	1.06 ± 0.083	1.05 ± 0.081	1.05 ± 0.081	1.09 ± 0.11	1.13 ± 0.15
